# Data source: PubChem BioAssay AID1224830 (NIAID, 2016)
# Purpose: 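Host factors that control LPS-induced TNF expression in human macrophages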 (primary screen)
# Cell system: human THP-1 monocytic leukaemia cells, TNF dual-luciferase reporter clone, PMA-differentiated to macrophage-like cells
# Reagent: siRNA pool against human genes, 50 nM
# Timing: LPS for 4 h, given about 3 days after siRNA transfection
# Conditions: bacterial LPS (TLR4 ligand), 10 ng/ml
# Read-out: 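TNF firefly reporter luminescence divided by renilla, normalised to the plate median, then turned into a robust z-score for each replicate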
# Reading the numbers: TNF reporter robust z-score: higher = stronger TNF reporter response to LPS
# Call rule: 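a well is active when its z-score exceeds 2.8 or falls below -1.5; control wells carry no call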
# Here is an unselected part of about 18,000 reagents tested. Over the whole deposit, about 2,900 (16%) got an active call. 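Calls are made per well; low scores hint the gene aids the LPS response, high scores that it dampens it.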 Repeated entries: four replicate wells of each siRNA pool. Reagent sequences are not shown.
Target gene,TNF reporter robust z-score,Outcome
MED22,1.12,inactive
MED22,0.13,inactive
MED22,1.37,inactive
MED22,0.26,inactive
OTP,2.26,inactive
OTP,0.03,inactive
OTP,-0.61,inactive
GLB1L2,-1.71,active
GLB1L2,-1.21,inactive
GLB1L2,-1.02,inactive
GLB1L2,-1.27,inactive
DENND6B,2.51,inactive
DENND6B,4.07,active
DENND6B,2.05,inactive
DENND6B,0.66,inactive
HTT,0.57,inactive
HTT,2.01,inactive
HTT,0.8,inactive
HTT,1.82,inactive
ELOVL3,1.16,inactive
ELOVL3,1.47,inactive
ELOVL3,-0.37,inactive
ELOVL3,1.66,inactive
GARNL3,2.34,inactive
GARNL3,0.85,inactive
GARNL3,1.14,inactive
GARNL3,2.31,inactive
NAA20,-0.78,inactive
NAA20,-0.46,inactive
NAA20,-1.47,inactive
NAA20,1.29,inactive
CD248,1.85,inactive
CD248,1.9,inactive
CD248,-0.88,inactive
CD248,-0.13,inactive
ZCCHC3,-0.74,inactive
ZCCHC3,-0.37,inactive
ZCCHC3,0.05,inactive
ATOSB,-0.44,inactive
ATOSB,-0.54,inactive
ATOSB,-1.07,inactive
ATOSB,-0.14,inactive
HNRNPK,-0.9,inactive
HNRNPK,-0.26,inactive
HNRNPK,-0.77,inactive
HNRNPK,-0.41,inactive
NEMF,1.51,inactive
NEMF,0.3,inactive
NEMF,0.83,inactive
NEMF,-0.33,inactive
AKTIP,-0.21,inactive
AKTIP,0.12,inactive
AKTIP,0.47,inactive
AKTIP,0.35,inactive
C10orf90,0.7,inactive
C10orf90,0.18,inactive
C10orf90,1.11,inactive
C10orf90,1.41,inactive
OR8U9,-0.35,inactive
OR8U9,-0.07,inactive
OR8U9,-0.01,inactive
OR8U9,0.37,inactive
GALNTL5,0.03,inactive
GALNTL5,0.22,inactive
GALNTL5,0.37,inactive
GALNTL5,0.05,inactive
LYZL2,-0.71,inactive
LYZL2,-0.78,inactive
LYZL2,-0.6,inactive
LYZL2,-0.32,inactive
UBE4A,-0.85,inactive
UBE4A,-0.5,inactive
UBE4A,-0.31,inactive
UBE4A,0.77,inactive
ZBTB49,-1.3,inactive
ZBTB49,-1.24,inactive
ZBTB49,-0.83,inactive
ZBTB49,-1.18,inactive
PRG4,-0.45,inactive
PRG4,-0.51,inactive
PRG4,1.83,inactive
PRG4,1.69,inactive
LRRC24,-1.29,inactive
LRRC24,-0.47,inactive
LRRC24,-0.9,inactive
LRRC24,1.56,inactive
MAPK13,-0.54,inactive
MAPK13,-0.2,inactive
MAPK13,-1.16,inactive
MAPK13,-1.35,inactive
PAG1,-0.04,inactive
PAG1,0.3,inactive
PAG1,0.7,inactive
PAG1,1.31,inactive
FAM151B,-0.64,inactive
FAM151B,-0.99,inactive
FAM151B,-0.78,inactive
FAM151B,0.01,inactive
CTNNBL1,0.52,inactive
CTNNBL1,2.18,inactive
CTNNBL1,0.48,inactive
CTNNBL1,0.37,inactive
ASAH1,-1.68,active
ASAH1,-1.08,inactive
ASAH1,-1.55,active
ASAH1,-0.96,inactive
LINC02910,-1.79,active
LINC02910,0.07,inactive
LINC02910,-0.05,inactive
LINC02910,-0.51,inactive
